Measurements as given in patent US9051592B2, “Methods of ganglioside production” (Garnet BioTherapeutics, Inc., priority 2012, dated 2015).

System: Affected sheep bone marrow cells (SBM)
Test: GM1 induction in affected sheep bone marrow cells by different treatments, CTB-Alexa 488 staining (Table 2)
Details: 72 H (Poly-L-Lysine coated coverslips 6 Days)

Row | Compound | Observations
1 | CCN(CC)CCCC(C)Nc1ccnc2cc(Cl)ccc12 (centres unmarked) [Chloroquine, chloroquine] | Vesicular accumulation seen in most
2 | N[C@H]1C(O)O[C@H](CO)[C@@H](O)[C@@H]1O (some centres unmarked) [Glucosamine, glucosamine] | A uniform increase in peri-nuclear
